Results published in the supplement of paper PMC10849652.
Some of the results follow.

Sequences of proteins named here, by UniProt entry; tags and fusion partners are left off. A change or cut given only in a name is not applied to a line headed by its entry.
UniProt Q9HD34: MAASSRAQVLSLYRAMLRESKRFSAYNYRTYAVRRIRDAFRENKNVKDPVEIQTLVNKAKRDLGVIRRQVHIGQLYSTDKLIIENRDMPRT
UniProt Q8N2S1: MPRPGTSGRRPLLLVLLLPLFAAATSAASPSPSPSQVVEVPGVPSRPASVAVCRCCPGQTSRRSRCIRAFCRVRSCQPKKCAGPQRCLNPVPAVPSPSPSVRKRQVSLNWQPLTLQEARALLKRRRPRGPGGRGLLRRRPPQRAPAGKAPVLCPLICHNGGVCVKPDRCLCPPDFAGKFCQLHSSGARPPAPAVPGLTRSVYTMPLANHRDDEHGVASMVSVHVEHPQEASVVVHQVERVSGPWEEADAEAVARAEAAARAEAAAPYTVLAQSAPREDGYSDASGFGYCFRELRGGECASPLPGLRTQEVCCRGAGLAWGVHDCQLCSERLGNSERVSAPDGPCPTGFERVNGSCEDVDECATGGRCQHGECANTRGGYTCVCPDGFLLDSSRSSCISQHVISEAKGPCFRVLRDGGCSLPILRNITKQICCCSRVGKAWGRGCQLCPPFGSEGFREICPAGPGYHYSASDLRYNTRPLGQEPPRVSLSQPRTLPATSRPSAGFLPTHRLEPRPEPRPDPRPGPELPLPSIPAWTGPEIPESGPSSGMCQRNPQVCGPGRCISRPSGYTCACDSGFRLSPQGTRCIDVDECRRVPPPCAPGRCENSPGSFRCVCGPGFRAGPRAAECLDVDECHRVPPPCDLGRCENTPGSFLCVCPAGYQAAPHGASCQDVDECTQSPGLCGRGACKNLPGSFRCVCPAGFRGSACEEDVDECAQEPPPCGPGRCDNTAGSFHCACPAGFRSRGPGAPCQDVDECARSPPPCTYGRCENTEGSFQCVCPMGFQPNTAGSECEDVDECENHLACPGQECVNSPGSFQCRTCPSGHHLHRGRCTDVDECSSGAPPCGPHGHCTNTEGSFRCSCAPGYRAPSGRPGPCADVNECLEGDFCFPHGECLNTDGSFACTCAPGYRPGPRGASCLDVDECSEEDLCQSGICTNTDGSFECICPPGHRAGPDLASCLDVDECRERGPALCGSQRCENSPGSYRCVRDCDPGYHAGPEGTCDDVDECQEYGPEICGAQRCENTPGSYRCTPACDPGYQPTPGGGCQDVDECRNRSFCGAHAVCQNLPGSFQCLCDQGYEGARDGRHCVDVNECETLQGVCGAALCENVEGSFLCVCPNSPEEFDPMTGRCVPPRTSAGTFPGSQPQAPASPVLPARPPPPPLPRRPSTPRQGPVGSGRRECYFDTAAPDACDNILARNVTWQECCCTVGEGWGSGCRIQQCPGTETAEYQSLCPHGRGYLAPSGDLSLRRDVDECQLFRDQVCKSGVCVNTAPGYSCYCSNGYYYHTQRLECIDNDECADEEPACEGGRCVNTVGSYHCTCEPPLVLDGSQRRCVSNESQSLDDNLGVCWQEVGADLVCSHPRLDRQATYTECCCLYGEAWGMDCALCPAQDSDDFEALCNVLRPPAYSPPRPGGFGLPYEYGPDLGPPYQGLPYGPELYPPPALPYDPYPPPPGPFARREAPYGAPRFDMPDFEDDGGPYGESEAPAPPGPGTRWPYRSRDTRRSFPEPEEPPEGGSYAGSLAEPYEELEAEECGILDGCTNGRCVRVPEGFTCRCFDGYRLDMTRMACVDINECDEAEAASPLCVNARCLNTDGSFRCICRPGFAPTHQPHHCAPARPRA
UniProt Q96LZ2: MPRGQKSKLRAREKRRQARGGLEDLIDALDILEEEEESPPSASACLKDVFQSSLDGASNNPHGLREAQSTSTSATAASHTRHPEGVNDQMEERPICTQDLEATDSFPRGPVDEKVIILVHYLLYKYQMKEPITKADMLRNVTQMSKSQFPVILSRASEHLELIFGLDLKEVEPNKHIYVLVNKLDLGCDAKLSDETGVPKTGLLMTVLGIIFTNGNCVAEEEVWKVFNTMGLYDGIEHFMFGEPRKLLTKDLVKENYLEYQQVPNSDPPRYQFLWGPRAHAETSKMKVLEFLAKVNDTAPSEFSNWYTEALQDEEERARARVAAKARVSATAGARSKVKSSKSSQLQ
UniProt O15116: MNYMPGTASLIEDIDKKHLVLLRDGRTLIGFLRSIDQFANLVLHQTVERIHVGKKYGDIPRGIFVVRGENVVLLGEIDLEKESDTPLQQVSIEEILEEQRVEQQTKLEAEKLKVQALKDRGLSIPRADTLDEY
UniProt Q7Z3D4: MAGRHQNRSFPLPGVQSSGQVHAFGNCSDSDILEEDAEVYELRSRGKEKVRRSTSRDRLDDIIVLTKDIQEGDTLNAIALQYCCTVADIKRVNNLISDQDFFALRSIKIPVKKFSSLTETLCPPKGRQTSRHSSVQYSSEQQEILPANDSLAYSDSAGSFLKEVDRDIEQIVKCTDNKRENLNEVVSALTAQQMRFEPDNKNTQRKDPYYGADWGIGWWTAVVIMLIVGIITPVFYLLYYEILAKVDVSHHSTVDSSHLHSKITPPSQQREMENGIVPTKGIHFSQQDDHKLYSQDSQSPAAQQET
UniProt Q7L1W4: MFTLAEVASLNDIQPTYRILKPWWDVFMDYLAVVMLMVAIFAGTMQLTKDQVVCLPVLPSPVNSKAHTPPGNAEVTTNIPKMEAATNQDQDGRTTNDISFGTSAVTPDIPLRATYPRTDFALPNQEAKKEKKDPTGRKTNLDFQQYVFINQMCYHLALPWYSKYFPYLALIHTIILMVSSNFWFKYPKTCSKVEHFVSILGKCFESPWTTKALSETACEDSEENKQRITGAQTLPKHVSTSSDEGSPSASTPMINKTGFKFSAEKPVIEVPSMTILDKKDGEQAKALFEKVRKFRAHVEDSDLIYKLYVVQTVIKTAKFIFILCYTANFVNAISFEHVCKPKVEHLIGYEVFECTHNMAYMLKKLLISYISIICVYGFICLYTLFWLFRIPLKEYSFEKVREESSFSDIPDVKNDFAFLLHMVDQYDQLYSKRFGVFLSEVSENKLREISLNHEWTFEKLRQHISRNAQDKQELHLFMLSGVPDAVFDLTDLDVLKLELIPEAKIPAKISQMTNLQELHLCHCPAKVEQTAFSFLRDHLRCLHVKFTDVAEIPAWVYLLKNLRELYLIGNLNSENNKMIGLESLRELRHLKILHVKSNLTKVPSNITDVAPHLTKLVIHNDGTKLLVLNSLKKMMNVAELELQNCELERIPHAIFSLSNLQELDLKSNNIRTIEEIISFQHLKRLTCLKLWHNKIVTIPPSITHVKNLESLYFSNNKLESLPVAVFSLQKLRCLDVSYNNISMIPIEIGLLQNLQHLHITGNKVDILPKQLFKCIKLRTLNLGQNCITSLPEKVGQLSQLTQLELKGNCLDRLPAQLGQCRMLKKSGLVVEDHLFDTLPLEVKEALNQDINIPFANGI
UniProt Q8WVR3: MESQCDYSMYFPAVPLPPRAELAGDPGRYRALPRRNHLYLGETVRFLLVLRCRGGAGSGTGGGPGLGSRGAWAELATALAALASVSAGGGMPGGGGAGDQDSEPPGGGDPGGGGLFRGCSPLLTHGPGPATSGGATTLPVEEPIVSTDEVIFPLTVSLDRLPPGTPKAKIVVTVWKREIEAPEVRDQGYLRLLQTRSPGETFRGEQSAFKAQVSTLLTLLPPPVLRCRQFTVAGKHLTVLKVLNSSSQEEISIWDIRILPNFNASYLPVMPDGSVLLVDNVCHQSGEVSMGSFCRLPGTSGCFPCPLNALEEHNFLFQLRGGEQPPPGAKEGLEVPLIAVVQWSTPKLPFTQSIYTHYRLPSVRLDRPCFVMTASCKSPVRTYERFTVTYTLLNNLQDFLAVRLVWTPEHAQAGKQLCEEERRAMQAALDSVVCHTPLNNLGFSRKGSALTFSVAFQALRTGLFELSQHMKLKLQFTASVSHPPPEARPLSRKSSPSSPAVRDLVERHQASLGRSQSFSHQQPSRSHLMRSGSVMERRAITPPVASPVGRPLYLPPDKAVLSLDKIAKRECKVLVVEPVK
UniProt O15479: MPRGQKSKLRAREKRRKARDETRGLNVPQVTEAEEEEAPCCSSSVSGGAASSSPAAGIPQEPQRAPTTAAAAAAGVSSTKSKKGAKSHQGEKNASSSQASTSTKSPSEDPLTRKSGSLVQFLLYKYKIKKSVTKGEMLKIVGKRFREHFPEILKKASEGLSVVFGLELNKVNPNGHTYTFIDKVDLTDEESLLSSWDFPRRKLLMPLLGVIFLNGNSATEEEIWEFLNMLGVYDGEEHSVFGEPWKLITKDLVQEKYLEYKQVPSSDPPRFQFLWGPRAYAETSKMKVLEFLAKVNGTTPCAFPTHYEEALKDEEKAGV
UniProt P20645: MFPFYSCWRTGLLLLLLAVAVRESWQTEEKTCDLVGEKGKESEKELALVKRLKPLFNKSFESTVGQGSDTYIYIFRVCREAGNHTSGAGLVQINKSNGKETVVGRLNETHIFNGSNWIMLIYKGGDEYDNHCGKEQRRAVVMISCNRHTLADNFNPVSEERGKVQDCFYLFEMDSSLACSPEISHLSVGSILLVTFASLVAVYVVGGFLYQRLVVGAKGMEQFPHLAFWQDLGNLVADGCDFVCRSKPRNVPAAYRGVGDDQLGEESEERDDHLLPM
UniProt P55145: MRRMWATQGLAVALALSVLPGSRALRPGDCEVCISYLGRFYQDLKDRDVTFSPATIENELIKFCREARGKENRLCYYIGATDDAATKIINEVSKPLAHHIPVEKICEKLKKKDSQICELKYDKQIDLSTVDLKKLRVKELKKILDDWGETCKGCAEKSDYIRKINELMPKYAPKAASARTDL
UniProt Q9UNF1: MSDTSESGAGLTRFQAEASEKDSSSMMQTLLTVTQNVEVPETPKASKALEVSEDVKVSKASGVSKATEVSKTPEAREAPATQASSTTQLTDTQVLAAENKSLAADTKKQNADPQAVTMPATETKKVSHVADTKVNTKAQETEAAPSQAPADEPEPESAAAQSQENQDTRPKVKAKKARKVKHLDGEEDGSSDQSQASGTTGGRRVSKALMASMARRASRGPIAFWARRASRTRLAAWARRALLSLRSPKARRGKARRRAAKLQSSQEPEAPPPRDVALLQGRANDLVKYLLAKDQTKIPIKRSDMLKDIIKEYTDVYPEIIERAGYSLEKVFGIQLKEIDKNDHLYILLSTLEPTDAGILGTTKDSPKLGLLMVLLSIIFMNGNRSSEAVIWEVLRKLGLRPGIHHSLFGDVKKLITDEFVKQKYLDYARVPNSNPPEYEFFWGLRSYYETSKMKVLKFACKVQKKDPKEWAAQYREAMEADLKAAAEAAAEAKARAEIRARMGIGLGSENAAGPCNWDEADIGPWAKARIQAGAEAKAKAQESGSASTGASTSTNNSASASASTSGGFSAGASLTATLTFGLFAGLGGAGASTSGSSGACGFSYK
UniProt Q8WZA0: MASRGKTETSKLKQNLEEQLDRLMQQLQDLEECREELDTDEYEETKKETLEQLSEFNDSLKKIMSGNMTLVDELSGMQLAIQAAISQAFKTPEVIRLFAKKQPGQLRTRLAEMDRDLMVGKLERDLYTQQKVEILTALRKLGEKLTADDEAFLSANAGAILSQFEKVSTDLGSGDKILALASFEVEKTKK
UniProt Q9ULX9: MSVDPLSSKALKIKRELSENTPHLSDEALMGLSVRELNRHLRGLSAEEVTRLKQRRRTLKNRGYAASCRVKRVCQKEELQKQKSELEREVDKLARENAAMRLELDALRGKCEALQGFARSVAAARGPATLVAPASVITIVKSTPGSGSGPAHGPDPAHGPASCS
UniProt Q3MHD2: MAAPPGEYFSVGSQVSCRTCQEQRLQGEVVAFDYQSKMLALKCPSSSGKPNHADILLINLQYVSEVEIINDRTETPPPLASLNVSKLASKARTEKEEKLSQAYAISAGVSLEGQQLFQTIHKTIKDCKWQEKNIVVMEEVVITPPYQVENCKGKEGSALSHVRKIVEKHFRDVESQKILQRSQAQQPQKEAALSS
UniProt Q9BQ69: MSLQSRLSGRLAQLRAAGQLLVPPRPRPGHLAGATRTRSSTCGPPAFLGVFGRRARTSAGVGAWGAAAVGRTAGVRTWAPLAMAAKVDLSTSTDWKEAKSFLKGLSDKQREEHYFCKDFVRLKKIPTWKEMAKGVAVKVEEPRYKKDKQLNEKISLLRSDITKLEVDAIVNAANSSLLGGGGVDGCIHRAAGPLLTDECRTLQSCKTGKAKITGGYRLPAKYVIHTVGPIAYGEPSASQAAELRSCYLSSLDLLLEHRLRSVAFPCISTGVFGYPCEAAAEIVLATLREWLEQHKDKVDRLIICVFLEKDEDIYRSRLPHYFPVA

Compound: c1cn2cc(-c3ccc4cn[nH]c4c3)nc(Nc3ccc(N4CCOCC4)cc3)c2n1 [entospletinib]
Assay: log2 fold change, soluble protein after heating vs DMSO (PISA); higher = thermal stabilisation; K562 cells, 10 uM, 30 min; active = over 0.2 and 3.5 SD of the protein, either way, in both replicates (recomputed)
In short: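 For each measurement, 10 μM compound was applied for 30 min to K562 cells at 2×10^6 cells/mL. Aliquots were heated for 3 min across 48°C-58°C, pooled, and extracted in PBS with 0.5% NP-40 at 4°C; the supernatant after 21,000xg for 90 min was soluble protein. This was quantified by TMTpro 16plex LC-MS/MS with channel sums equalised, and thermal stability was reported relative to control samples from duplicates, on a log2 fold-change scale.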

log2 fold change, inactive:
LYRM4 (UniProt Q9HD34) -0.02, LTBP4 (UniProt Q8N2S1) 0.147, MAGEB10 (UniProt Q96LZ2) -0.005, LSM1 (UniProt O15116) -0.018, MAP7D3 (UniProt Q8IWC1) 0.015, LYSMD3 (UniProt Q7Z3D4) 0.055, LRWD1 (UniProt Q9UFC0) -0.036, LRRC8D (UniProt Q7L1W4) 0.167, MAK16 (UniProt Q9BXY0) 0.005, LYL1 (UniProt P12980) -0.171, MAP11 (UniProt Q8WVR3) 0.05, MAP4K3 (UniProt Q8IVH8) 0.075, MAGEB2 (UniProt O15479) 0.262, LYRM2 (UniProt Q9NU23) -0.058, MAN2C1 isoform 4 (UniProt Q9NTJ4) -0.086, MAP7 isoform 7 (UniProt Q14244) 0.086, MARS (UniProt P56192) 0.039, M6PR (UniProt P20645) 0.01, MAP1B (UniProt P46821) 0.017, MANF (UniProt P55145) -0.015, MAGED2 (UniProt Q9UNF1) -0.272, LZIC isoform 2 (UniProt Q8WZA0) 0.019, MAFF (UniProt Q9ULX9) 0.094, LYZ (UniProt P61626) -0.079, LSM12 isoform 2 (UniProt Q3MHD2) 0.014, LSM2 (UniProt Q9Y333) -0.037, MAPK1 (UniProt P28482) -0.047, MACROD1 (UniProt Q9BQ69) -0.008, LYAR (UniProt Q9NX58) 0.033
